From US20230080534A1, “SEMG2 ANTIBODY AND USE THEREOF” (SHANGHAI BIOTROY BIOTECHNIQUE CO., LTD., priority 2020, published 2023)
No constants are given. Whether binding was seen depends on the method and setting. For some assays here: Binding seen in cells or lysates may run through a third protein. Some results given as binding are weak or reduced against the parent protein; the word gives no strength. For some assays here: Sequences can lack the tags named with a protein.

Sequences of proteins named here, by UniProt entry; tags and fusion partners are left off. A change or cut given only in a name is not applied to a line headed by its entry. Residues count along the entry.
UniProt Q02383: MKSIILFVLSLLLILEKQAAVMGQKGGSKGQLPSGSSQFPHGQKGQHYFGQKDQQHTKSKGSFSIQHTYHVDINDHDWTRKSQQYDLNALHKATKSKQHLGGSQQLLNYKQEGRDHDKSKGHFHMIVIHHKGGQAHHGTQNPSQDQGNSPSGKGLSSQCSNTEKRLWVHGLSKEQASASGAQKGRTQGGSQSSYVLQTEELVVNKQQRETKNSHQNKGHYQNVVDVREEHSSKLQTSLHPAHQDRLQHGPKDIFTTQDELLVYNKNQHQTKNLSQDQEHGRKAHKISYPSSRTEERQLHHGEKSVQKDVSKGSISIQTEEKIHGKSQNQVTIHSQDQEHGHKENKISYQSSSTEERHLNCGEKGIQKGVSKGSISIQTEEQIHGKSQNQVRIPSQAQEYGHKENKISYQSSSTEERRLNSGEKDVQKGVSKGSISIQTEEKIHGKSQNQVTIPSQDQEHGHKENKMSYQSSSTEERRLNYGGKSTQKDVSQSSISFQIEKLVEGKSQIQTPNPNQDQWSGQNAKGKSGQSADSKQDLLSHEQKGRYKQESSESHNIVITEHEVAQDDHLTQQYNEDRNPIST
UniProt P41272, residues 24-250: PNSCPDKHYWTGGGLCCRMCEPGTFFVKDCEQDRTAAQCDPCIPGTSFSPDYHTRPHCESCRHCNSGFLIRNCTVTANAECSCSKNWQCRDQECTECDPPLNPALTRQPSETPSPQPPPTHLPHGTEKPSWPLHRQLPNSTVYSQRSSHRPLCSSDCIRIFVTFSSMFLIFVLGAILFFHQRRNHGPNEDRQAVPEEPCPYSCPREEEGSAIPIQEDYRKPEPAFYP

Experiments:
[1] = biological target: human SEMG2 full-length protein (human) (UniProt Q02383); experiment: blocking ELISA: SEMG2 on the plate, CD27-Fc added with 10 µg/mL antibody
[2] = biological target: T1, SEMG2(497-509) polypeptide … (human); experiment: ELISA on immobilized SEMG2 fragments
T1 sequence (peptide): QIEKLVEGKSQIQ

[3] = biological target: T1, SEMG2(497-509) polypeptide … (human); experiment: ELISA on coated SEMG2 antigens (FIG. 19)
[4] = biological target: human CD27 (HA-tagged, expressed in HEK293 cells) (human) (UniProt P26842); experiment: co-immunoprecipitation (FIG. 4, left panel)
[5] = biological target: mouse CD27 (expressed in HEK293 cells) (mouse) (UniProt P41272); experiment: co-immunoprecipitation (FIG. 4, right panel)
[6] = biological target: human CD27 (HA-tagged, expressed in HEK293 cells) (human) (UniProt P26842); experiment: co-immunoprecipitation, HEK293 co-transfection
[7] = biological target: mouse CD27 (expressed in HEK293 cells) (mouse) (UniProt P41272); experiment: co-immunoprecipitation, HEK293 co-transfection
[8] = biological target: T2, CD27 protein (ELISA, form not stated) (UniProt P26842); experiment: ELISA (FIG. 6A), against negative BSA control
T2 sequence (looked up): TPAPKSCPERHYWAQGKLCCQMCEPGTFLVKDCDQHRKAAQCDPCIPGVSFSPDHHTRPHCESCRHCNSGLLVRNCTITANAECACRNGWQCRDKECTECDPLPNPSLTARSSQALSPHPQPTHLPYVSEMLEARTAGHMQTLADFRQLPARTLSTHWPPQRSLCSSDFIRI

B1: MM08 (antibody, IgG1, V domains shown)
VH: QVQLQQPGAELVRPGASVKLSCKSSDYTFTRYWMNWVKQRPGQGLEWIGMIDPSDSETHHNQMFKDKATLTVDKSSSTAYMQLSSLTSEDSAVYFCARYLGGKEGSFDYWGQGTTLTVSS
VL: DIVLTQSPSSLAVSAGERVTMSCKSSQSLFNSRTRKNYLAWYQQKPGQSPKLLLYWASTRESGVPDRFTGSGSGTDFTLTISSVKTEDLAVYYCKQSYELPWTFGGGTKLEMKR
B1 was tested, and the binding [1] was “binds”, the binding [2] was “binds” and the binding [3] was “binds”.

B2: SEMG2-P7 (SEMG2(497-509)) fused with GFP (peptide, not shown: large carriers)
chain: QIEKLVEGKSQIQ
With B2 the binding [4] was “binds”, the binding [5] was “binds” and the binding [6] was “binds”. The binding [7] was “binds”.

B3: BSA-conjugated human SEMG2 (497-509) polypeptide (peptide)
peptide: QIEKLVEGKSQIQ
modifications: coupled to BSA (site of coupling not stated)
B3 was tested, and the binding [8] was “binds”.
